From paper PMC5473137, “Structure of a SMG8–SMG9 complex identifies a G-domain heterodimer in the NMD effector proteins” (RNA, 2017)
No constants are given. Whether binding was seen depends on the method and setting. In cells and extracts the contact can be indirect. Some entries that bind do so weakly or less than the wild type. Tags and fused reporters may be left off the sequences shown.

Legend:
[1] = target: T1, human full-length Flag-HA-tagged hSMG9, wild-type (human) (UniProt Q9H0W8); test: co-IP; HA-hSMG8 and Flag-HA-hSMG9 transiently coexpressed in HEK293T; lysate in 50 mM Tris pH 7.4, 150 mM NaCl; Anti-Flag M2 beads 1 h at 4°C; washes with 300 mM NaCl; flag peptide elution; anti-HA Western blot
T1 sequence: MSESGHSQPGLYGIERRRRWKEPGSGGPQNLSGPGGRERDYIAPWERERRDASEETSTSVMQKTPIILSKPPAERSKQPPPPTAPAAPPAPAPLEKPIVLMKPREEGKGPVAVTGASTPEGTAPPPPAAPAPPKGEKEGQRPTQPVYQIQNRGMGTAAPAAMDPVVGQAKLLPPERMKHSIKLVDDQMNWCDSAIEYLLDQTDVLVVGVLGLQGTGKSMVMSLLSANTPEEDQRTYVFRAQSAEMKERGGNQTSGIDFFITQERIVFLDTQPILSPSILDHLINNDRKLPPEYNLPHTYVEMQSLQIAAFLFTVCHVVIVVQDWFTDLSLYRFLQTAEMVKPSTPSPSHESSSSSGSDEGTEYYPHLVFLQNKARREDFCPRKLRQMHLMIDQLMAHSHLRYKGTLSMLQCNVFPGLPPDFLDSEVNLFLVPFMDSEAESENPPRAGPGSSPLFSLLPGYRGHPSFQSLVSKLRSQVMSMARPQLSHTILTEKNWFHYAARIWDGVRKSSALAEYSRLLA

[2] = target: T2, human full-length Flag-HA-tagged hSMG9 M390R, Y515R (human) (UniProt Q9H0W8); test: as above
T2 sequence: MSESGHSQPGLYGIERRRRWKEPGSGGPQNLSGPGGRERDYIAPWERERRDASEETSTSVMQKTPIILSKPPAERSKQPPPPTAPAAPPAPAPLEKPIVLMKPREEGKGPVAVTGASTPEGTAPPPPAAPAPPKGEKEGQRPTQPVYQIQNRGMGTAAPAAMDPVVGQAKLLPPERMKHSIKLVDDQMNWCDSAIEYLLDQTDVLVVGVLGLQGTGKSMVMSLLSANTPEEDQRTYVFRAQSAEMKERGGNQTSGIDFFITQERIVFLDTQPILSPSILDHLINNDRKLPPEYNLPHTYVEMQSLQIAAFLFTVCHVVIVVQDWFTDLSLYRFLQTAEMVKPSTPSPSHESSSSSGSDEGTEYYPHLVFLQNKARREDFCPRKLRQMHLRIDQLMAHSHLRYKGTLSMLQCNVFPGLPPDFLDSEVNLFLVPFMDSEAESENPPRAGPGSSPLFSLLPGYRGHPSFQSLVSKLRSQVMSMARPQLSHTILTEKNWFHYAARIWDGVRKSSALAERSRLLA

B1: human full-length HA-tagged hSMG8 (protein, UniProt Q8ND04 1-991)
chain: MAGPVSLRDLLMGASAWMGSESPGGSPTEGGGSAAGGPEPPWREDEICVVGIFGKTALRLNSEKFSLVNTVCDRQVFPLFRHQDPGDPGPGIRTEAGAVGEAGGAEDPGAAAGGSVRGSGAVAEGNRTEAGSQDYSLLQAYYSQESKVLYLLLTSICDNSQLLRACRALQSGEAGGGLSLPHAEAHEFWKHQEKLQCLSLLYLFSVCHILLLVHPTCSFDITYDRVFRALDGLRQKVLPLLKTAIKDCPVGKDWKLNCRPCPPRLLFLFQLNGALKVEPPRNQDPAHPDKPKKHSPKRRLQHALEDQIYRIFRKSRVLTNQSINCLFTVPANQAFVYIVPGSQEEDPVGMLLDQLRSHCTVKDPESLLVPAPLSGPRRYQVMRQHSRQQLSFHIDSSSSSSSGQLVDFTLREFLWQHVELVLSKKGFDDSVGRNPQPSHFELPTYQKWISAASKLYEVAIDGKEEDLGSPTGELTSKILSSIKVLEGFLDIDTKFSENRCQKALPMAHSAYQSNLPHNYTMTVHKNQLAQALRVYSQHARGPAFHKYAMQLHEDCYKFWSNGHQLCEERSLTDQHCVHKFHSLPKSGEKPEADRNPPVLYHNSRARSTGACNCGRKQAPRDDPFDIKAANYDFYQLLEEKCCGKLDHINFPVFEPSTPDPAPAKNESSPAPPDSDADKLKEKEPQTQGESTSLSLALSLGQSTDSLGTYPADPQAGGDNPEVHGQVEVKTEKRPNFVDRQASTVEYLPGMLHSNCPKGLLPKFSSWSLVKLGPAKSYNFHTGLDQQGFIPGTNYLMPWDIVIRTRAEDEGDLDTNSWPAPNKAIPGKRSAVVMGRGRRRDDIARAFVGFEYEDSRGRRFMCSGPDKVMKVMGSGPKESALKALNSDMPLYILSSSQGRGLKPHYAQLMRLFVVVPDAPLQIILMPQVQPGPPPCPVFYPEKQEITLPPDGLWVLRFPYAYVTERGPCFPPKENVQLMSYKVLRGVLKAVTQ
**Q.** With B1 as the binder, how does the binding [1] read?
**A.** binds

**Q.** What about the binding [2] of the same binder?
**A.** binds weakly
